At least one compound was matched to its structure with a doubt left.
Molecular target: NMDA receptors (NR1/NR2A) (Homo sapiens, UniProt Q05586+Q12879)
Assay: Two-electrode voltage-clamp block of recombinant NMDA receptors expressed in Xenopus oocytes
Assay type: cell-based
Conditions: 0.2 μM NBTA

By UniProt entry, the sequences of proteins in these tests, tags left out. Residues count along the entry.
UniProt Q12879, 23-1464: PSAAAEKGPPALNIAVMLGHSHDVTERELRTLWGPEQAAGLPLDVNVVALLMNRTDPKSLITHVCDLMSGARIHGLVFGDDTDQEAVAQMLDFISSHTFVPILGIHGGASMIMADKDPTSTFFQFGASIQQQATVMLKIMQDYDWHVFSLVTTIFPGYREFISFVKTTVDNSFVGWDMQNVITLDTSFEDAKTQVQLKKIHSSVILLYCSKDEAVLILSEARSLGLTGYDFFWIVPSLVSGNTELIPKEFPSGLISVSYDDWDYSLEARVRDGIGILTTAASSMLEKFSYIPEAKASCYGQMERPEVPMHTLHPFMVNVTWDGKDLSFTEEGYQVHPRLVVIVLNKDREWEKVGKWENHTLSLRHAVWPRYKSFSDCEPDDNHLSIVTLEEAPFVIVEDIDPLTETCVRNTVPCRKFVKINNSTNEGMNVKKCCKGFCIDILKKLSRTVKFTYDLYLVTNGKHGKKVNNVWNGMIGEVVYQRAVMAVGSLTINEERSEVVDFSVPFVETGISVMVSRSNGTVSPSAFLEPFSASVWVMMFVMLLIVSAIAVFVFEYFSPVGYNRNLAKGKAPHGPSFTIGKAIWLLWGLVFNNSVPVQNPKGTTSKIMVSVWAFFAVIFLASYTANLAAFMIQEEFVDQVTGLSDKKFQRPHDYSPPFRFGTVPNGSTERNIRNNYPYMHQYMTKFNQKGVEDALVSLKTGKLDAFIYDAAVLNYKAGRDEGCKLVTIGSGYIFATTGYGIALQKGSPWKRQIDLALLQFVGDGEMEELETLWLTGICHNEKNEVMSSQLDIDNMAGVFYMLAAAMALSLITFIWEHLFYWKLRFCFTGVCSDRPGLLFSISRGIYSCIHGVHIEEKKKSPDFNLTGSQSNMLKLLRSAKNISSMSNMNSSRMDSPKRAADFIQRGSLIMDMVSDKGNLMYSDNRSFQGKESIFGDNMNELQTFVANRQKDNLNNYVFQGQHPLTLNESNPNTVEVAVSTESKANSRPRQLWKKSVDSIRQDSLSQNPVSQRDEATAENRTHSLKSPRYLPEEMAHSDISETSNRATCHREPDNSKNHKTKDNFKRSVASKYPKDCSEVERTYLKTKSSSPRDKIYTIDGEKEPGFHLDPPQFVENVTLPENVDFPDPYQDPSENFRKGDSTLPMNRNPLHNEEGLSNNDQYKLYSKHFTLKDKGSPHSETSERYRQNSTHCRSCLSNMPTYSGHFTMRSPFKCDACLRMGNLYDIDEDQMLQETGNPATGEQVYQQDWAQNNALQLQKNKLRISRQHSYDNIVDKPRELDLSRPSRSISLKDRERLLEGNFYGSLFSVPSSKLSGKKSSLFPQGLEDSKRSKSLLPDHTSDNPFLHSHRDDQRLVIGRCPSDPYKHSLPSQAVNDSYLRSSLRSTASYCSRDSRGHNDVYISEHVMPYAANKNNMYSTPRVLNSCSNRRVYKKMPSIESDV

CCC(C)C(N)CN(Cc1ccccc1)C(CNCc1ccccc1)Cc1ccc(O)cc1 (stereo not shown) [NBTA] was tested, and the “effect on IC50 of L-glutamic acid or glycine for the NMDA receptors” value was “does not affect”.
